Results: the supplement of paper PMC12823440, “Inhibitors supercharge kinase turnover through native proteolytic circuits” (Nature, 2025)
Where a name gives a salt, the structure may show the parent alone. This is one part of the list. The calls rarely recur for the same compound in another form.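 Kinases were expressed as nanoluciferase fusions in K562 cells and luminescence was read every 4 h between 2 and 18 h as percent of control, DMSO set to 100% and a positive control to 0%. A time point counts as decreased when the signal drops significantly (2 sigma). The hit call is the authors' own, does not follow from the count of time points alone, and its rule is not shown.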

Chains of the proteins cited; added tags and fusions are not shown. Lines headed by an entry give the natural chain unless they say otherwise; changes in a name come on top.
UniProt Q15208: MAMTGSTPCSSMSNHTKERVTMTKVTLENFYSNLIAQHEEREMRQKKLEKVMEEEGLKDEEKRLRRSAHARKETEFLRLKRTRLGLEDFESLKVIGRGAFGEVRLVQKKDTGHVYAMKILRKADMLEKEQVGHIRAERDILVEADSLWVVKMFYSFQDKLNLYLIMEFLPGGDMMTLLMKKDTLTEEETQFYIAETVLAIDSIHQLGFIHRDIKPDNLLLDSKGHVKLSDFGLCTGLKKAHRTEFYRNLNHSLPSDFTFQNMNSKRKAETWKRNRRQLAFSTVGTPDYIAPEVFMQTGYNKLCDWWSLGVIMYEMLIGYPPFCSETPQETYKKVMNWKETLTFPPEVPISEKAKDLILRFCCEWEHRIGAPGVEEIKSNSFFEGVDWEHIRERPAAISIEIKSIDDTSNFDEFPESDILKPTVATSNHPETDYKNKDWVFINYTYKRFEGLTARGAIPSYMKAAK
UniProt P42680: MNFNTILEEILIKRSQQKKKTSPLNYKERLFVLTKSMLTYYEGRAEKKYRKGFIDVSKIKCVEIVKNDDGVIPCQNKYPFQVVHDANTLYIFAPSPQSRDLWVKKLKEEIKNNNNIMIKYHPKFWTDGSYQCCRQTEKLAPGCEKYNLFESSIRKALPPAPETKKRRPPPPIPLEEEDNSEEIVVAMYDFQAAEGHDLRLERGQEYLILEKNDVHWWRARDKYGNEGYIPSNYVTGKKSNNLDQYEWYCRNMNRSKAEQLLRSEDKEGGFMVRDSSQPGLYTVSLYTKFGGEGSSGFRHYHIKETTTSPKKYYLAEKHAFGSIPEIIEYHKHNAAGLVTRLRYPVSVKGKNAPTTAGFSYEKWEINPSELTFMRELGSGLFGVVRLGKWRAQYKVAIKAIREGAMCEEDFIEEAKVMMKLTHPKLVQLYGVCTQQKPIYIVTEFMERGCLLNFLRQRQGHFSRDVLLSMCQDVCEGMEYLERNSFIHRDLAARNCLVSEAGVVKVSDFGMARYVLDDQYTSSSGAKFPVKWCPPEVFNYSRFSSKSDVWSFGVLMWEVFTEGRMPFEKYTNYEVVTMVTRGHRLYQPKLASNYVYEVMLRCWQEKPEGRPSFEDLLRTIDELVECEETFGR
UniProt P29597: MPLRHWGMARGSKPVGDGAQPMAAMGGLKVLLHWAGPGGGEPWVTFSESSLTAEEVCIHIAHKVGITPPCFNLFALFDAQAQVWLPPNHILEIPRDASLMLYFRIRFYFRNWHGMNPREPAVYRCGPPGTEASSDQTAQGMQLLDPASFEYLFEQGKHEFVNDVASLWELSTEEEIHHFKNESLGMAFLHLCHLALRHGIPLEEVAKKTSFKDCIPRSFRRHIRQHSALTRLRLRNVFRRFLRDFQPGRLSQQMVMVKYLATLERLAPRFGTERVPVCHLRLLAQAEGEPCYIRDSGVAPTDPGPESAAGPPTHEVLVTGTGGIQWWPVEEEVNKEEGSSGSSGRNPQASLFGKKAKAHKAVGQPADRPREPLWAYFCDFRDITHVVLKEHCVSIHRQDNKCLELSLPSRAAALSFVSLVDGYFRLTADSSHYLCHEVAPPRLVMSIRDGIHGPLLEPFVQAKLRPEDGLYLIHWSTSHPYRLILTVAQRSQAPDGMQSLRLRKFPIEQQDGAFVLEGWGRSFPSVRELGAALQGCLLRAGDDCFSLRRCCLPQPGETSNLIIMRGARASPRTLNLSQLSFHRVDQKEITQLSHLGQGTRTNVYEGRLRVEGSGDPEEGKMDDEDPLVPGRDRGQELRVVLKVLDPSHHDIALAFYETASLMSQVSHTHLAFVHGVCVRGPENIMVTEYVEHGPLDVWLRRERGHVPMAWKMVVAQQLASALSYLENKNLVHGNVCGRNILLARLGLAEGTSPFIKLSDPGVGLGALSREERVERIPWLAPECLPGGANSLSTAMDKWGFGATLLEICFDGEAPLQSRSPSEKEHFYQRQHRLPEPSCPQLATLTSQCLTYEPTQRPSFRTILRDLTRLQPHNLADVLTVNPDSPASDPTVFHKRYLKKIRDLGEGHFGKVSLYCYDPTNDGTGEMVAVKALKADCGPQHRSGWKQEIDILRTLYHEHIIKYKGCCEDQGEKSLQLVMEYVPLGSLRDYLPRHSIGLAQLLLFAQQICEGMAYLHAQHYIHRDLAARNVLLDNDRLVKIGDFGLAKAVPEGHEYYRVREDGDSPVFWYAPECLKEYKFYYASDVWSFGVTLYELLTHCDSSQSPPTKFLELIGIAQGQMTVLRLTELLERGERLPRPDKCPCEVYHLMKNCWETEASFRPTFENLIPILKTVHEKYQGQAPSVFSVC
UniProt Q6PHR2: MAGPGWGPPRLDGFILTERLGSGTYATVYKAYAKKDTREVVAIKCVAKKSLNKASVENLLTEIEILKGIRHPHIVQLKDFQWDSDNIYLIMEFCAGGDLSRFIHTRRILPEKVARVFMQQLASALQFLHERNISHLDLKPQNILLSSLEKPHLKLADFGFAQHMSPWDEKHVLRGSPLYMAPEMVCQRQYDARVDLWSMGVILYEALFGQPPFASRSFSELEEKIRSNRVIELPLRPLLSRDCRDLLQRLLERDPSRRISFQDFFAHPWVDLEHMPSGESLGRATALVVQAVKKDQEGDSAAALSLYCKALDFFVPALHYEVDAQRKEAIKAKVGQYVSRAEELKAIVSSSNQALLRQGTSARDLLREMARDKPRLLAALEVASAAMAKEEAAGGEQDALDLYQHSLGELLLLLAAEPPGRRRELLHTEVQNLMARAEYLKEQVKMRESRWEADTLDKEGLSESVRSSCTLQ
UniProt P07947, whole entry, looked up: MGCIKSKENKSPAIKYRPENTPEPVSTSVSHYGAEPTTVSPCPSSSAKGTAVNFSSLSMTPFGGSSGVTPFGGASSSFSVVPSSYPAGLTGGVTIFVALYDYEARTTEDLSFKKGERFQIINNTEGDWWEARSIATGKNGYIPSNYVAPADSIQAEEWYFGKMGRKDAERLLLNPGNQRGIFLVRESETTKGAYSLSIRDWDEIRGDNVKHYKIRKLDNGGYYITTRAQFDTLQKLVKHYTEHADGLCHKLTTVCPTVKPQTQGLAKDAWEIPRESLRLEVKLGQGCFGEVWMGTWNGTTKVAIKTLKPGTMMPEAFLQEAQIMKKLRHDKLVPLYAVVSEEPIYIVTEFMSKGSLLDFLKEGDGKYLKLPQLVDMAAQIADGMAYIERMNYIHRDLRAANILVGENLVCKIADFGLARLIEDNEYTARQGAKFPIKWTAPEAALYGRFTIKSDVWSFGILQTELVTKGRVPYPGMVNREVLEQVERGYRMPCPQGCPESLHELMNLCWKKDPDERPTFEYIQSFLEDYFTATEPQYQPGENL
UniProt P43403: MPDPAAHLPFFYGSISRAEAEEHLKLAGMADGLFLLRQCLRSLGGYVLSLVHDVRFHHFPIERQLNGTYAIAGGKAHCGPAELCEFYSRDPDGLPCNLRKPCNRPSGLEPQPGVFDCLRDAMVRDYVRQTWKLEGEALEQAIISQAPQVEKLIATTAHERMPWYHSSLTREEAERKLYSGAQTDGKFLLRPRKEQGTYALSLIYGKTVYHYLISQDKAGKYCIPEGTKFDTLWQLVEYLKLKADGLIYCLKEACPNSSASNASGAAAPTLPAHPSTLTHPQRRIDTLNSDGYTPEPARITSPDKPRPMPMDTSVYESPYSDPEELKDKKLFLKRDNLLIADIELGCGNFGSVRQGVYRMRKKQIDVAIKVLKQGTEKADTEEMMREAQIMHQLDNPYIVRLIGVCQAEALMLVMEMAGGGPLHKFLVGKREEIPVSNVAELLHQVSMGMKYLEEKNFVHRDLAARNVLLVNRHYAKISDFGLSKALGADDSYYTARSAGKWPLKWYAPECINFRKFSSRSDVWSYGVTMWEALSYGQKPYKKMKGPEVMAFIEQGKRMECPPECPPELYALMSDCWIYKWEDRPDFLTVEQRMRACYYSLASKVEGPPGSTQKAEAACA
UniProt P11802: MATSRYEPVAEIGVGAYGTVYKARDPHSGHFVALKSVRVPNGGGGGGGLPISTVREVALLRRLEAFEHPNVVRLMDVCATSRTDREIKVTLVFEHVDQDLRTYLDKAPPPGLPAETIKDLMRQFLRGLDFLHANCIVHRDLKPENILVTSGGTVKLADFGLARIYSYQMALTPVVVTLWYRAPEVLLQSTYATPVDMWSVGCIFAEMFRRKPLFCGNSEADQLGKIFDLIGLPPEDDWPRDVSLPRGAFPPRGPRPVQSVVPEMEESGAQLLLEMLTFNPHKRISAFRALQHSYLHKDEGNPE
UniProt P50613: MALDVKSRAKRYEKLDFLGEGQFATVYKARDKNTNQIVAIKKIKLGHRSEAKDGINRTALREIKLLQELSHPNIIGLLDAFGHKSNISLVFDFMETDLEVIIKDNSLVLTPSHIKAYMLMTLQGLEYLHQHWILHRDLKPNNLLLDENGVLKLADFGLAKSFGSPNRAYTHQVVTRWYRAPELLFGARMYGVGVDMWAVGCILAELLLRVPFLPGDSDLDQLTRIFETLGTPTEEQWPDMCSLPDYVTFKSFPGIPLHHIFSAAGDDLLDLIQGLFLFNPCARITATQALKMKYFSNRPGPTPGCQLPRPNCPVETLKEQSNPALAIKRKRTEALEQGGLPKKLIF
UniProt P50750, whole entry: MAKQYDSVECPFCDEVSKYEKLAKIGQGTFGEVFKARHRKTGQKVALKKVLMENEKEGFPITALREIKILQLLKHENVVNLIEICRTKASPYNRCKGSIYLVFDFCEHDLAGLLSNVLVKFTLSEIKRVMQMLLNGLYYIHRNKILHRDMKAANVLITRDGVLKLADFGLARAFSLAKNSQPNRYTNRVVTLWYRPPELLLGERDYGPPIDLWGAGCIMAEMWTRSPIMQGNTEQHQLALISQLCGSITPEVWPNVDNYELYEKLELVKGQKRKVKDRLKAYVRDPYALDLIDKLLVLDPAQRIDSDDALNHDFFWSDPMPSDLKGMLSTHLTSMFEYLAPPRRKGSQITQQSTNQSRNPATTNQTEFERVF

Assays:
Details in all cases: K562, 2-18 h
STK38 = STK38 (UniProt Q15208); assay: kinase-Nluc reporter destabilization hit call (1 = scored as downregulated) (binary); higher = compound decreases kinase abundance
SYK = SYK (UniProt P43405); assay: as above
TEC = TEC (UniProt P42680); assay: as above
TYK2 = TYK2 (UniProt P29597); assay: as above
ULK3 = ULK3 (UniProt Q6PHR2); assay: as above
YES1 = YES1 (UniProt P07947); assay: as above
ZAK = ZAK (UniProt Q9NYL2); assay: as above
ZAP70 = ZAP70 (UniProt P43403); assay: as above
CDK4 = CDK4 (UniProt P11802); assay: number of time points (of 4; 2 h point missing) at which kinase-Nluc abundance scored as decreased, DMSO-normalised (count); higher = more persistent destabilization
CDK7 = CDK7 (UniProt P50613); assay: as above
CDK9 = CDK9 (UniProt P50750); assay: as above

## C[C@H](Nc1cc(-c2cnn(C)c2)cc(Nc2cnccn2)n1)c1ccc(F)cc1 [Ilginatinib]
STK38; 2.5 µM
  kinase-Nluc reporter destabilization hit call: inactive: 0
SYK; 2.5 µM
  kinase-Nluc reporter destabilization hit call: inactive: 0
TEC; 2.5 µM
  kinase-Nluc reporter destabilization hit call: inactive: 0
TYK2; 2.5 µM
  kinase-Nluc reporter destabilization hit call: inactive: 0
ULK3; 2.5 µM
  kinase-Nluc reporter destabilization hit call: inactive: 0
YES1; 2.5 µM
  kinase-Nluc reporter destabilization hit call: inactive: 0
ZAK; 2.5 µM
  kinase-Nluc reporter destabilization hit call: inactive: 0
ZAP70; 2.5 µM
  kinase-Nluc reporter destabilization hit call: inactive: 0
CDK4; 2.5 µM
  number of time points: 0
CDK7; 2.5 µM
  number of time points: 3
CDK9; 2.5 µM
  number of time points: 1

## CCCC(=O)Nc1ncnc2c1ncn2[C@@H]1O[C@@H]2COP(=O)(O)O[C@H]2[C@H]1OC(=O)CCC [Bucladesine (calcium)]
STK38; 10 µM
  kinase-Nluc reporter destabilization hit call: inactive: 0
SYK; 10 µM
  kinase-Nluc reporter destabilization hit call: inactive: 0
TEC; 10 µM
  kinase-Nluc reporter destabilization hit call: inactive: 0
TYK2; 10 µM
  kinase-Nluc reporter destabilization hit call: inactive: 0
ULK3; 10 µM
  kinase-Nluc reporter destabilization hit call: inactive: 0
YES1; 10 µM
  kinase-Nluc reporter destabilization hit call: inactive: 0
ZAK; 10 µM
  kinase-Nluc reporter destabilization hit call: inactive: 0
ZAP70; 10 µM
  kinase-Nluc reporter destabilization hit call: inactive: 0
CDK4; 10 µM
  number of time points: 0
CDK7; 10 µM
  number of time points: 0
CDK9; 10 µM
  number of time points: 0

## Cc1[nH]c(/C=C2\C(=O)Nc3ccc(F)cc32)c(C)c1C(=O)NCCN1CCCC1 [Toceranib]
STK38; 2 µM
  kinase-Nluc reporter destabilization hit call: inactive: 0
SYK; 2 µM
  kinase-Nluc reporter destabilization hit call: inactive: 0
TEC; 2 µM
  kinase-Nluc reporter destabilization hit call: inactive: 0
TYK2; 2 µM
  kinase-Nluc reporter destabilization hit call: inactive: 0
ULK3; 2 µM
  kinase-Nluc reporter destabilization hit call: inactive: 0
YES1; 2 µM
  kinase-Nluc reporter destabilization hit call: inactive: 0
ZAK; 2 µM
  kinase-Nluc reporter destabilization hit call: inactive: 0
ZAP70; 2 µM
  kinase-Nluc reporter destabilization hit call: inactive: 0
CDK4; 2 µM
  number of time points: 0
CDK7; 2 µM
  number of time points: 0
CDK9; 2 µM
  number of time points: 0

## O=C(c1ccc(F)c(F)c1Nc1ccc(I)cc1F)N1CC(O)([C@@H]2CCCCN2)C1 [Cobimetinib]
STK38; 10 µM
  kinase-Nluc reporter destabilization hit call: inactive: 0
SYK; 10 µM
  kinase-Nluc reporter destabilization hit call: inactive: 0
TEC; 10 µM
  kinase-Nluc reporter destabilization hit call: inactive: 0
TYK2; 10 µM
  kinase-Nluc reporter destabilization hit call: inactive: 0
ULK3; 10 µM
  kinase-Nluc reporter destabilization hit call: inactive: 0
YES1; 10 µM
  kinase-Nluc reporter destabilization hit call: inactive: 0
ZAK; 10 µM
  kinase-Nluc reporter destabilization hit call: inactive: 0
ZAP70; 10 µM
  kinase-Nluc reporter destabilization hit call: inactive: 0
CDK4; 10 µM
  number of time points: 0
CDK7; 10 µM
  number of time points: 1
CDK9; 10 µM
  number of time points: 0

## C/C=C1\C(=O)C[C@H]2[C@@H]3CCC4=CC(=O)CC[C@]4(C)[C@H]3CC[C@]12C [Guggulsterone]
STK38; 10 µM
  kinase-Nluc reporter destabilization hit call: inactive: 0
SYK; 10 µM
  kinase-Nluc reporter destabilization hit call: inactive: 0
TEC; 10 µM
  kinase-Nluc reporter destabilization hit call: inactive: 0
TYK2; 10 µM
  kinase-Nluc reporter destabilization hit call: inactive: 0
ULK3; 10 µM
  kinase-Nluc reporter destabilization hit call: inactive: 0
YES1; 10 µM
  kinase-Nluc reporter destabilization hit call: inactive: 0
ZAK; 10 µM
  kinase-Nluc reporter destabilization hit call: inactive: 0
ZAP70; 10 µM
  kinase-Nluc reporter destabilization hit call: inactive: 0
CDK4; 10 µM
  number of time points: 0
CDK7; 10 µM
  number of time points: 0
CDK9; 10 µM
  number of time points: 0

## CCN(CC)CC(=O)Nc1c(C)cccc1C [Lidocaine]
STK38; 10 µM
  kinase-Nluc reporter destabilization hit call: inactive: 0
SYK; 10 µM
  kinase-Nluc reporter destabilization hit call: inactive: 0
TEC; 10 µM
  kinase-Nluc reporter destabilization hit call: inactive: 0
TYK2; 10 µM
  kinase-Nluc reporter destabilization hit call: inactive: 0
ULK3; 10 µM
  kinase-Nluc reporter destabilization hit call: inactive: 0
YES1; 10 µM
  kinase-Nluc reporter destabilization hit call: inactive: 0
ZAK; 10 µM
  kinase-Nluc reporter destabilization hit call: inactive: 0
ZAP70; 10 µM
  kinase-Nluc reporter destabilization hit call: inactive: 0
CDK4; 10 µM
  number of time points: 0
CDK7; 10 µM
  number of time points: 0
CDK9; 10 µM
  number of time points: 0

## CS(=O)(=O)N1CCN(Cc2cc3nc(-c4cccc5[nH]ncc45)nc(N4CCOCC4)c3s2)CC1 [Pictilisib (dimethanesulfonate)]
STK38; 10 µM
  kinase-Nluc reporter destabilization hit call: inactive: 0
SYK; 10 µM
  kinase-Nluc reporter destabilization hit call: inactive: 0
TEC; 10 µM
  kinase-Nluc reporter destabilization hit call: inactive: 0
TYK2; 10 µM
  kinase-Nluc reporter destabilization hit call: inactive: 0
ULK3; 10 µM
  kinase-Nluc reporter destabilization hit call: inactive: 0
YES1; 10 µM
  kinase-Nluc reporter destabilization hit call: inactive: 0
ZAK; 10 µM
  kinase-Nluc reporter destabilization hit call: inactive: 0
ZAP70; 10 µM
  kinase-Nluc reporter destabilization hit call: inactive: 0
CDK4; 10 µM
  number of time points: 0
CDK7; 10 µM
  number of time points: 0
CDK9; 10 µM
  number of time points: 0

## COc1ccc(S(=O)(=O)Nc2ccccc2CN(C)C/C=C/c2ccc(Cl)cc2)cc1 [KN-92 (hydrochloride)]
STK38; 2.5 µM
  kinase-Nluc reporter destabilization hit call: inactive: 0
SYK; 2.5 µM
  kinase-Nluc reporter destabilization hit call: inactive: 0
TEC; 2.5 µM
  kinase-Nluc reporter destabilization hit call: inactive: 0
TYK2; 2.5 µM
  kinase-Nluc reporter destabilization hit call: inactive: 0
ULK3; 2.5 µM
  kinase-Nluc reporter destabilization hit call: inactive: 0
YES1; 2.5 µM
  kinase-Nluc reporter destabilization hit call: inactive: 0
ZAK; 2.5 µM
  kinase-Nluc reporter destabilization hit call: inactive: 0
ZAP70; 2.5 µM
  kinase-Nluc reporter destabilization hit call: inactive: 0
CDK4; 2.5 µM
  number of time points: 0
CDK7; 2.5 µM
  number of time points: 0
CDK9; 2.5 µM
  number of time points: 0

## N#CC[C@H](C1CCCC1)n1cc(-c2ncnc3[nH]ccc23)cn1 [Ruxolitinib]
STK38; 10 µM
  kinase-Nluc reporter destabilization hit call: inactive: 0
SYK; 10 µM
  kinase-Nluc reporter destabilization hit call: inactive: 0
TEC; 10 µM
  kinase-Nluc reporter destabilization hit call: inactive: 0
TYK2; 10 µM
  kinase-Nluc reporter destabilization hit call: inactive: 0
ULK3; 10 µM
  kinase-Nluc reporter destabilization hit call: inactive: 0
YES1; 10 µM
  kinase-Nluc reporter destabilization hit call: inactive: 0
ZAK; 10 µM
  kinase-Nluc reporter destabilization hit call: inactive: 0
ZAP70; 10 µM
  kinase-Nluc reporter destabilization hit call: inactive: 0
CDK4; 10 µM
  number of time points: 0
CDK7; 10 µM
  number of time points: 0
CDK9; 10 µM
  number of time points: 0

## CN(C)C(=O)c1cc2cnc(Nc3ccc(N4CCNCC4)cn3)nc2n1C1CCCC1 [Ribociclib succinate hydrate]
STK38; 2.5 µM
  kinase-Nluc reporter destabilization hit call: inactive: 0
SYK; 2.5 µM
  kinase-Nluc reporter destabilization hit call: inactive: 0
TEC; 2.5 µM
  kinase-Nluc reporter destabilization hit call: inactive: 0
TYK2; 2.5 µM
  kinase-Nluc reporter destabilization hit call: inactive: 0
ULK3; 2.5 µM
  kinase-Nluc reporter destabilization hit call: inactive: 0
YES1; 2.5 µM
  kinase-Nluc reporter destabilization hit call: inactive: 0
ZAK; 2.5 µM
  kinase-Nluc reporter destabilization hit call: inactive: 0
ZAP70; 2.5 µM
  kinase-Nluc reporter destabilization hit call: inactive: 0
CDK4; 2.5 µM
  number of time points: 0
CDK7; 2.5 µM
  number of time points: 0
CDK9; 2.5 µM
  number of time points: 0

## CNC(=O)c1ccccc1Nc1cc(Nc2ccc(N3CCOCC3)cc2OC)ncc1C(F)(F)F
STK38; 10 µM
  kinase-Nluc reporter destabilization hit call: inactive: 0
SYK; 10 µM
  kinase-Nluc reporter destabilization hit call: inactive: 0
TEC; 10 µM
  kinase-Nluc reporter destabilization hit call: inactive: 0
TYK2; 10 µM
  kinase-Nluc reporter destabilization hit call: inactive: 0
ULK3; 10 µM
  kinase-Nluc reporter destabilization hit call: inactive: 0
YES1; 10 µM
  kinase-Nluc reporter destabilization hit call: inactive: 0
ZAK; 10 µM
  kinase-Nluc reporter destabilization hit call: inactive: 0
ZAP70; 10 µM
  kinase-Nluc reporter destabilization hit call: inactive: 0
CDK4; 10 µM
  number of time points: 0
CDK7; 10 µM
  number of time points: 0
CDK9; 10 µM
  number of time points: 0

## N#CCC1(n2cc(-c3ncnc4[nH]ccc34)cn2)CN(C2CCN(C(=O)c3ccnc(C(F)(F)F)c3F)CC2)C1 [Itacitinib]
STK38; 10 µM
  kinase-Nluc reporter destabilization hit call: inactive: 0
SYK; 10 µM
  kinase-Nluc reporter destabilization hit call: inactive: 0
TEC; 10 µM
  kinase-Nluc reporter destabilization hit call: inactive: 0
TYK2; 10 µM
  kinase-Nluc reporter destabilization hit call: inactive: 0
ULK3; 10 µM
  kinase-Nluc reporter destabilization hit call: inactive: 0
YES1; 10 µM
  kinase-Nluc reporter destabilization hit call: inactive: 0
ZAK; 10 µM
  kinase-Nluc reporter destabilization hit call: inactive: 0
ZAP70; 10 µM
  kinase-Nluc reporter destabilization hit call: inactive: 0
CDK4; 10 µM
  number of time points: 0
CDK7; 10 µM
  number of time points: 0
CDK9; 10 µM
  number of time points: 0

## O=C(c1ccc(F)c(F)c1Nc1ccc(I)cc1F)N1CC(O)([C@@H]2CCCCN2)C1 [Cobimetinib (hemifumarate)]
STK38; 10 µM
  kinase-Nluc reporter destabilization hit call: inactive: 0
SYK; 10 µM
  kinase-Nluc reporter destabilization hit call: inactive: 0
TEC; 10 µM
  kinase-Nluc reporter destabilization hit call: inactive: 0
TYK2; 10 µM
  kinase-Nluc reporter destabilization hit call: inactive: 0
ULK3; 10 µM
  kinase-Nluc reporter destabilization hit call: inactive: 0
YES1; 10 µM
  kinase-Nluc reporter destabilization hit call: inactive: 0
ZAK; 10 µM
  kinase-Nluc reporter destabilization hit call: inactive: 0
ZAP70; 10 µM
  kinase-Nluc reporter destabilization hit call: inactive: 0
CDK4; 10 µM
  number of time points: 0
CDK7; 10 µM
  number of time points: 2
CDK9; 10 µM
  number of time points: 0

## CC(C)NC[C@@H](C(=O)N1CCN(c2ncnc3c2[C@H](C)C[C@H]3O)CC1)c1ccc(Cl)cc1 [Ipatasertib (dihydrochloride)]
STK38; 10 µM
  kinase-Nluc reporter destabilization hit call: inactive: 0
SYK; 10 µM
  kinase-Nluc reporter destabilization hit call: inactive: 0
TEC; 10 µM
  kinase-Nluc reporter destabilization hit call: inactive: 0
TYK2; 10 µM
  kinase-Nluc reporter destabilization hit call: inactive: 0
ULK3; 10 µM
  kinase-Nluc reporter destabilization hit call: inactive: 0
YES1; 10 µM
  kinase-Nluc reporter destabilization hit call: inactive: 0
ZAK; 10 µM
  kinase-Nluc reporter destabilization hit call: inactive: 0
ZAP70; 10 µM
  kinase-Nluc reporter destabilization hit call: inactive: 0
CDK4; 10 µM
  number of time points: 0
CDK7; 10 µM
  number of time points: 0
CDK9; 10 µM
  number of time points: 0

## CNC(=O)c1cc(Oc2ccc(NC(=O)Nc3ccc(Cl)c(C(F)(F)F)c3)c(F)c2)ccn1 [Regorafenib]
STK38; 2.5 µM
  kinase-Nluc reporter destabilization hit call: inactive: 0
SYK; 2.5 µM
  kinase-Nluc reporter destabilization hit call: inactive: 0
TEC; 2.5 µM
  kinase-Nluc reporter destabilization hit call: inactive: 0
TYK2; 2.5 µM
  kinase-Nluc reporter destabilization hit call: inactive: 0
ULK3; 2.5 µM
  kinase-Nluc reporter destabilization hit call: inactive: 0
YES1; 2.5 µM
  kinase-Nluc reporter destabilization hit call: inactive: 0
ZAK; 2.5 µM
  kinase-Nluc reporter destabilization hit call: inactive: 0
ZAP70; 2.5 µM
  kinase-Nluc reporter destabilization hit call: inactive: 0
CDK4; 2.5 µM
  number of time points: 0
CDK7; 2.5 µM
  number of time points: 3
CDK9; 2.5 µM
  number of time points: 0
